Values from PubChem BioAssay AID1259308 (NCATS, 2017)
The deposit covers about 59,000 reagents; this is a random part of them. In the full data, about 1,510 (2.6%) got an active call. 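Calls use total luciferase alone and ignore viability, so some active siRNAs may act by altering cell number.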 Entries without a mark were called inactive. The numbers tell different reagents against one gene apart. Not all columns of the deposit are shown. Reagent sequences are not shown.

Screen: 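Candidate targets for better recombinant protein yield in mammalian cells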 (primary screen)
System: human HEK293 embryonic kidney cells stably expressing firefly luciferase (HEK-CMV-Luc2-Hygro)
Knock-down reagent: single siRNA against human genes, 0.8 pmol siRNA per well
Timing: 72 h
Measurement: 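Luciferase light (ONE-Glo) measured on one replicate plate set and viability (CellTiter-Glo) on the other, scaled to a negative control siRNA, with robust z-scores and luciferase per cell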
Reading the numbers: total luciferase, z-score: higher = more reporter protein produced
Call rule: 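An siRNA counts as active if its total luciferase robust z-score exceeds 3; genes with two or more such siRNAs out of three were retested with fresh siRNAs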
Meaning of the calls: active = raised luciferase; inactive = no rise

Against CACNA1D (calcium voltage-gated channel subunit alpha1 D) #1 the deposit lists total luciferase, z-score -0.383.
CACNA1D (calcium voltage-gated channel subunit alpha1 D) #2 gave total luciferase, z-score 0.326.
CACNA1D (calcium voltage-gated channel subunit alpha1 D) #3 showed total luciferase, z-score -2.64.
With knock-down of ATCAY (ATCAY kinesin light chain interacting caytaxin) #1 the results were total luciferase, z-score -0.0309.
ATCAY (ATCAY kinesin light chain interacting caytaxin) #2 scored total luciferase, z-score 0.255.
ATCAY (ATCAY kinesin light chain interacting caytaxin) #3 scored total luciferase, z-score 3.16 (active).
After knock-down of HSPA5 (heat shock protein family A (Hsp70) member 5) #1, the record shows total luciferase, z-score -0.382.
HSPA5 (heat shock protein family A (Hsp70) member 5) #2 gave total luciferase, z-score -3.29.
Knock-down of HSPA5 (heat shock protein family A (Hsp70) member 5) #3 resulted in: total luciferase, z-score 0.413.
Silencing of LHFPL3 (LHFPL tetraspan subfamily member 3) #1 resulted in: total luciferase, z-score -1.42.
For LHFPL3 (LHFPL tetraspan subfamily member 3) #2, the entry reads total luciferase, z-score 0.449.
With knock-down of LHFPL3 (LHFPL tetraspan subfamily member 3) #3, the record shows total luciferase, z-score -0.772.
Against SCLT1 (sodium channel and clathrin linker 1) #1 the deposit lists total luciferase, z-score -0.355.
Depletion of SCLT1 (sodium channel and clathrin linker 1) #2 gave: total luciferase, z-score -0.438.
After knock-down of SCLT1 (sodium channel and clathrin linker 1) #3, the screen gave total luciferase, z-score -1.12.
After knock-down of PPIL6 (peptidylprolyl isomerase like 6) #1, the record shows total luciferase, z-score -1.59.
PPIL6 (peptidylprolyl isomerase like 6) #2 showed total luciferase, z-score 0.0168.
PPIL6 (peptidylprolyl isomerase like 6) #3 scored total luciferase, z-score -0.657.

5 entries already listed, sorted by “total luciferase, z-score”, lowest first.
SCLT1 (sodium channel and clathrin linker 1) #3 | total luciferase, z-score = -1.12
LHFPL3 (LHFPL tetraspan subfamily member 3) #3 | total luciferase, z-score = -0.772
SCLT1 (sodium channel and clathrin linker 1) #2 | total luciferase, z-score = -0.438
SCLT1 (sodium channel and clathrin linker 1) #1 | total luciferase, z-score = -0.355
LHFPL3 (LHFPL tetraspan subfamily member 3) #2 | total luciferase, z-score = 0.449

The results go on:
Against SLC37A1 #1 the deposit lists total luciferase, z-score -1.53.
SLC37A1 #2 showed total luciferase, z-score -1.88.
For SLC37A1 #3 the deposit lists total luciferase, z-score -1.5.
After knock-down of OR5B21 (olfactory receptor family 5 subfamily B member 21) #1, the record shows total luciferase, z-score 3.48 (active).
For OR5B21 (olfactory receptor family 5 subfamily B member 21) #2 the deposit lists total luciferase, z-score 1.11.
OR5B21 (olfactory receptor family 5 subfamily B member 21) #3 scored total luciferase, z-score -1.76.
ZNF714 (zinc finger protein 714) #1 gave total luciferase, z-score 0.0374.
With knock-down of ZNF714 (zinc finger protein 714) #2, the record shows total luciferase, z-score 3.13 (active).
ZNF714 (zinc finger protein 714) #3 gave total luciferase, z-score 0.0169.
FBH1 (F-box DNA helicase 1) #1 gave total luciferase, z-score -0.668.
After knock-down of FBH1 (F-box DNA helicase 1) #2, the record shows total luciferase, z-score -0.0621.
After knock-down of FBH1 (F-box DNA helicase 1) #3, the screen gave total luciferase, z-score -0.376.
With knock-down of SRL (sarcalumenin) #1, the screen gave total luciferase, z-score -0.18.
After knock-down of SRL (sarcalumenin) #2, the screen gave total luciferase, z-score 1.23.
Knock-down of SRL (sarcalumenin) #3 resulted in: total luciferase, z-score -1.14.
